The target in the assay is T1, mouse TOMT with a C-terminal FLAG tag (TOMT-FLAG) (mouse) (UniProt A1Y9I9).
T1 sequence: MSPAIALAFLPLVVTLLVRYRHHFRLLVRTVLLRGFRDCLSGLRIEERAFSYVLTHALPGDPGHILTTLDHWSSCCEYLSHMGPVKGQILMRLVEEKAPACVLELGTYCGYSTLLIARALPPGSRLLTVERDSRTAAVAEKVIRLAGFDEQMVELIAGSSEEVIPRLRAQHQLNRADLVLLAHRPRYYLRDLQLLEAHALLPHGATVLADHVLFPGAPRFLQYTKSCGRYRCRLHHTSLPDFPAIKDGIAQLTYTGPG
The assay can be described thus: co-IP; HEK293 cells co-transfected, lysed after 48 hr in CoIP buffer (50 mM HEPES pH 7.5, 50-300 mM NaCl, 1.5 mM MgCl2, 10% glycerol, 1% Triton X-100, 1 mM EDTA); IP 1 hr at 4°C with HA affinity gel (Figure 8A,B,E) or Flag M2 affinity gel (Figure 8C,D), Western blot.

These are yes or no findings as the source states them, for the method shown. In cells and extracts the contact can be indirect. A result given as binding can be weak or reduced; the word gives no strength. Sequences can lack the tags named with a protein.

Consider PCDH15-CD2, for which the binding entry is given as “binds”.

These data come from PMC5462538.
